These results are taken from PubChem BioAssay AID270 (DTP/NCI, 2004).

Molecules are shown by their SMILES. The list does not hold the whole screen: its compounds were picked by chemical class. Other doses and runs of a compound may be missing. T/C is the treated group as % of the vehicle group. Some entries show no survivor count and are marked so; the dose need not have been tolerated. Schedule codes are those of the source, read here as Q, the interval in days (D) or hours (H), X, the number of doses. For survival time, this PubChem deposit counts one and a half times the control or more as active, and values a quarter to a half above the control carry no call in these data; other NCI protocols may use other cut-offs.

The experiment relates to BDF1 mice, s.c. Lewis lung carcinoma, T/C %. Kind of experiment: NCI In Vivo Anticancer Drug Screen. Data for tumor model Lewis Lung Carcinoma (subcutaneous) in B6D2F1 (BDF1) mice. Here is the method:
The antitumor activity of compounds was measured in mice bearing transplantable tumors. Survival or tumor size were measured and the results are expressed as the measurement made in the treated group (T) divided by the measurement made in the vehicle treated control group (C). The tumor model used in this assay is Lewis Lung Carcinoma (subcutaneous) in B6D2F1 (BDF1) mice

Consider `COCc1c(CN(CCCl)CCCl)cnc(C)c1O`, for which the T/C runs as follows: (T/C endpoint: mean tumor weight, dose: 0.5 mg/kg/injection, schedule: Q01DX011 (ip), vehicle: saline, evaluation day not shown, higher T/C = larger tumour) 31 % of control [survivor count not shown]; (T/C endpoint: mean tumor weight, dose: 1.0 mg/kg/injection, schedule: Q01DX011 (ip), vehicle: saline, evaluation day not shown, higher T/C = larger tumour) 74 % of control [survivor count not shown]; (T/C endpoint: mean tumor weight, dose: 2.0 mg/kg/injection, schedule: Q01DX011 (ip), vehicle: saline, evaluation day not shown, higher T/C = larger tumour) 58 % of control [survivor count not shown]; (T/C endpoint: mean tumor weight, dose: 3.8 mg/kg/injection, schedule: Q01DX011 (ip), vehicle: other, evaluation day not shown, higher T/C = larger tumour) 42 % of control [survivor count not shown]; (T/C endpoint: mean tumor weight, dose: 4.0 mg/kg/injection, schedule: Q01DX011 (ip), vehicle: saline, evaluation day not shown, higher T/C = larger tumour) 84 % of control [survivor count not shown]; (T/C endpoint: mean tumor weight, dose: 7.5 mg/kg/injection, schedule: Q01DX011 (ip), vehicle: other, evaluation day not shown, higher T/C = larger tumour) 48 % of control [survivor count not shown].

In the case of `ClCCCCC(CCl)NCCCl` (centres undefined), the T/C was 73 % of control [survivor count not shown] (T/C endpoint: mean tumor weight, dose: 14.0 mg/kg/injection, schedule: Q01DX011 (ip), vehicle: saline, evaluation day not shown, higher T/C = larger tumour); 61 % of control [survivor count not shown] (T/C endpoint: mean tumor weight, dose: 21.0 mg/kg/injection, schedule: Q01DX011 (ip), vehicle: saline, evaluation day not shown, higher T/C = larger tumour); 39 % of control [survivor count not shown] (T/C endpoint: mean tumor weight, dose: 31.0 mg/kg/injection, schedule: Q01DX011 (ip), vehicle: saline, evaluation day not shown, higher T/C = larger tumour); 47 % of control [survivor count not shown] (T/C endpoint: mean tumor weight, dose: 47.0 mg/kg/injection, schedule: Q01DX011 (ip), vehicle: saline, evaluation day not shown, higher T/C = larger tumour).

As to `ClCCN1CCCC1CCl` (centres undefined), the T/C is 112 % of control [survivor count not shown] (T/C endpoint: median survival time, dose: 375.0 micrograms/kg/injection, schedule: Q01DX009 (ip), vehicle: saline, higher T/C = longer survival); 102 % of control [survivor count not shown] (T/C endpoint: median survival time, dose: 750.0 micrograms/kg/injection, schedule: Q01DX009 (ip), vehicle: saline, higher T/C = longer survival); 110 % of control [survivor count not shown] (T/C endpoint: median survival time, dose: 1500.0 micrograms/kg/injection, schedule: Q01DX009 (ip), vehicle: saline, higher T/C = longer survival); 120 % of control [survivor count not shown] (T/C endpoint: median survival time, dose: 3000.0 micrograms/kg/injection, schedule: Q01DX009 (ip), vehicle: saline, higher T/C = longer survival).
